The results in this text go back to PMC4582147.

Construct, isoform or probe ends are uncertain for at least one entry. At least one verdict was read from the data and is not stated in words by the source. Protein sequences can lack the tags named with them.

The data set concerns the target T1, GST-dTAF2 (1125-1221) (Drosophila melanogaster) (UniProt Q24325).
T1 sequence (looked up): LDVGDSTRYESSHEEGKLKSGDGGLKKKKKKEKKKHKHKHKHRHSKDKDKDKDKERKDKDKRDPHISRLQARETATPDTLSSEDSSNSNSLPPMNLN
In words: small-molecule microarray rescue. The note with it: nuclease-treated protein, dsDNA (1 ug/ml) restores binding to printed tin-containing compound 1, indirect read-out; recombinant protein; residues 1125-1221; protein details: GST.

For “GCTTGCATGCGTACTTATATAAGGGGGTGGGGGCGCGTT (double strand) [dsDNA rescue oligonucleotide]”, the binding result was “binds”.
